# Patent EP0305063A2, “A process for production of c-terminal alpha-amide peptides” (Kissei Pharmaceutical Co Ltd, priority 1987, dated 1989)
# At least one compound was matched to its structure with a doubt left.
# Tested on: α-amidating enzyme
# Test: α-amidation assay (formation of D-Tyr-Val-NH₂ from ¹²⁵I-D-Tyr-Val-Gly) with partially purified enzyme
# Assay type: biochemical, rat
structure (smiles),measurement,setting,value
"O=C(O)c1cc(C(=O)O)c2c(n1)C(=O)C(=O)c1cc(C(=O)O)[nH]c1-2 [PQQ, pyrroloquinolinequinone]",D-Tyr-Val-NH₂ found,"3.5 µg combined Sephacryl S-200 fraction, with ascorbate (1.5 mM), 10 µl boiled supernatant or PQQ 0.1 mM alone",436 pmol/mg/h
same,D-Tyr-Val-NH₂ found,"3.5 µg combined Sephacryl S-200 fraction, with ascorbate (1.5 mM), 10 µl boiled supernatant plus PQQ 0.1 mM together",766 pmol/mg/h
same,D-Tyr-Val-NH₂ found,"3.5 µg combined Sephacryl S-200 fraction, without ascorbate, 10 µl boiled supernatant or PQQ 0.1 mM alone",470 pmol/mg/h
same,D-Tyr-Val-NH₂ found,"3.5 µg combined Sephacryl S-200 fraction, without ascorbate, 10 µl boiled supernatant plus PQQ 0.1 mM together",863 pmol/mg/h
same,D-Tyr-Val-NH₂ found,"3.7 µg combined Sephacryl S-200 fraction, conditions of Example 2, PQQ at 0.1 mM",490 pmol/mg/h
same,restored α-amidating activity relative to that obtained in the restored reaction system with the boiled supernatant,"0.1 mM PQQ, 3.7 µg combined Sephacryl S-200 fraction",about 40%
same,concentration at which the maximum activity was attained,PQQ in place of the restoring factor,0.1 mM
same,effect on α-amidating activity at high concentration,concentration over 0.1 mM,rather inhibitory
